The whole screen tested about 400,000 compounds, of which about 13,000 (3.2%) were called active. This list was built around the results that the source calls inconclusive (neither active nor inactive); the mix of calls is not that of the screen. Calls come from the whole dose curve; as a rule, active = well fitted cell-killing curve with a large enough effect; inconclusive = small, poorly fitted or top-dose-only effect, or effect the other way; inactive = flat fitted curve, though single readings scatter. Potencies of inconclusive entries are doubtful fits and often do not repeat.
experiment: qHTS assay for MDR1-selective chemotherapeutics: Primary screen using the drug-selected MDR subline cells KB-V1; conditions: KB-V1 MDR cells viability, CellTiter-Glo, 72 h; activity change, negative = cytotoxicity: at 46.1 µM (top of the series); note: nearly all actives have a fitted effect of over 60% in size
In short: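 qHTS viability screen in drug-selected KB-V1 MDR cells: 72 h compound treatment at 37 degrees C, ATP luminescence end point.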
% is set by controls: 0 for no effect and ±100 for the full control effect; potency is the fitted concentration of half-maximal effect.

Q: With `O=S(=O)(NC1=NCCC1)c1ccc(F)cc1F` as the compound, how does the “activity change, negative = cytotoxicity” value read?
A: inactive: 0.767%

Q: For `CCC(CC)NCCOC(=O)c1ccc([N+](=O)[O-])cc1`, which activity change, negative = cytotoxicity is on record?
A: inconclusive: -18.6%

Q: Which Potency does the source give for `CC/C(CC(C)(C)c1ccccc1)=N\O` here?
A: inconclusive: 2.59 µM [rising, partial curve, poor fit]

Q: With `CCCCN(CCCC)CCCNC(=O)C12CN(Cc3ccccc3)CC1C(c1cccc([N+](=O)[O-])c1)=NO2` (configuration not stated) as the compound, how does the “activity change, negative = cytotoxicity” value read?
A: inactive: -24.1%

Q: Which Potency does the source give for `CCc1nc(SCC(=O)c2cc(C)ccc2C)n[nH]1` here?
A: inconclusive: 16.4 µM [cytotoxic, partial curve]

Q: Which Potency does the source give for `O=c1[nH]c(=S)[nH]c2nc[nH]c12` here?
A: inconclusive: 29.1 µM [rising, single point]

Q: Which “activity change, negative = cytotoxicity” value does the source give for `CCn1c(C(=O)NCCc2ccc(S(N)(=O)=O)cc2)cc2sc(Cl)cc21` here?
A: inactive: -3.3%

Q: With `C/C(=N\NC(=O)Cc1cccn1C)c1cccs1` as the compound, how does the Potency read?
A: inconclusive: 7.31 µM [rising, partial curve]

Q: For `COc1ccc(-c2csc(N(CCCN(C)C)C(=O)c3ccc(F)cc3)n2)cc1`, which Potency is on record?
A: inconclusive: 6.51 µM [cytotoxic, partial curve]

Q: For `CC1Cc2ccccc2N1C(=O)CSc1nnc2c(n1)[nH]c1ccc(F)cc12` (configuration not stated), which Potency is on record?
A: inconclusive: 14.6 µM [cytotoxic, single point]

Q: For `O=C(Nc1ncc2c(n1)-c1ccccc1CC2)c1ccc(F)cc1`, which Potency is on record?
A: inconclusive: 16.4 µM [cytotoxic, partial curve, poor fit]

Q: For `COc1ccccc1/C=C1\S/C(=N/NC(=O)c2cccc(Br)c2)NC1=O`, which Potency is on record?
A: inconclusive: 4.61 µM [cytotoxic, full curve, poor fit]

Q: For `CCC(C)Cn1cnc2c(SCc3ccccn3)nc(N)nc21` (configuration not stated), which Potency is on record?
A: inconclusive: 0.206 µM [cytotoxic, full curve, poor fit]

Q: For `C[C@@H]1CN([C@@H](C)CO)C(=O)CCCn2nncc2CO[C@@H]1CN(C)S(=O)(=O)c1cccs1`, which “activity change, negative = cytotoxicity” value is on record?
A: inactive: -2.81%

Q: Which Potency does the source give for `CC(=O)N/C(=C\c1ccccc1)C(=O)OCC(=O)N(C)C1CCCCC1` here?
A: active: 16.4 µM

Q: With `CC(=O)C1=CCC(c2ccc(Br)cc2)N(S(=O)(=O)c2ccc(C)cc2)C1` (configuration not stated) as the compound, how does the “activity change, negative = cytotoxicity” value read?
A: inactive: 6.93%

Q: With `O=C(Nc1ccc2c(c1)OCCO2)C1CCCN(S(=O)(=O)c2cccc3nsnc23)C1` (configuration not stated) as the compound, how does the Potency read?
A: inconclusive: 20.6 µM [cytotoxic, single point]

Q: For `COc1ccc(-c2ccc3c(c2)S(=O)(=O)c2cccc(C(=O)NCc4ccccc4Cl)c2C3=O)cc1OC`, which Potency is on record?
A: inconclusive: 20.6 µM [cytotoxic, single point]

Q: With `Cc1ccccc1CSCC(=O)Nc1ccccc1-c1ccccc1` as the compound, how does the Potency read?
A: active: 23.1 µM

Q: Which “activity change, negative = cytotoxicity” value does the source give for `C=CC[C@@H](CC(=O)N(CCO)Cc1ccccc1)C(=O)N[C@H](COC(=O)[C@@H](CC=C)Cc1ccc(F)cc1)C(C)(C)C` here?
A: inactive: -6.2%

Q: For `Cc1cccc(/C=N/NC(=O)Cn2nnnc2N)n1`, which Potency is on record?
A: inconclusive: 29.1 µM [rising, single point]

Q: With `O=C(Nc1ncccc1O)c1ccc(Oc2ccccc2)cc1` as the compound, how does the Potency read?
A: inconclusive: 20.6 µM [cytotoxic, single point]

Q: For `Cc1nn2c(Nc3ccc(F)cc3)c3c(nc2c1-c1ccccc1)CCC3`, which Potency is on record?
A: inconclusive: 5.8 µM [rising, full curve]

Q: For `Cc1ccc(S(=O)(=O)NC(CC(C)C)C(=O)N2CCCCCCC2)cc1` (configuration not stated), which Potency is on record?
A: inconclusive: 29.1 µM [cytotoxic, partial curve, poor fit]

Q: With `COc1ccc(N2CCN(CCCNC(=O)C3COc4ccccc4C3)CC2)cc1` (configuration not stated) as the compound, how does the “activity change, negative = cytotoxicity” value read?
A: inactive: -29.9%

Q: Which Potency does the source give for `Cc1cc(=O)[nH]c(NN=Cc2cc(Br)ccc2O)n1` here?
A: active: 0.58 µM

Q: With `COc1ccc2oc(C(=O)OCC(=O)NCc3ccc(OC)c(OC)c3)c(C)c2c1` as the compound, how does the Potency read?
A: inconclusive: 16.4 µM [cytotoxic, single point]

Q: With `CCc1c(O)cc2n(c1=O)-c1ccc(Cl)cc1C2(C)C` as the compound, how does the Potency read?
A: inconclusive: 35.5 µM [cytotoxic, single point]

Q: Which Potency does the source give for `Cc1cc(C(F)F)n2nc(C(=O)Nc3sc4c(c3C#N)CCC4)nc2n1` here?
A: active: 20.6 µM

Q: Which “activity change, negative = cytotoxicity” value does the source give for `O=C(CN1CCN(S(=O)(=O)c2ccccc2F)CC1)Nc1ccnn1C1CCCC1` here?
A: inactive: -5.66%

Q: Which activity change, negative = cytotoxicity does the source give for `CC1=C(c2ccccc2)CCC1=O` here?
A: inconclusive: -28.6%

Q: Which Potency does the source give for `O=C(NC1=C(NC2CCS(=O)(=O)C2)C(=O)c2ccccc2C1=O)c1ccccc1` (configuration not stated) here?
A: inconclusive: 29.1 µM [cytotoxic, single point]

Q: With `COc1ccc(OC)c2[nH]c(=O)c(CCNC(=O)C3CCCCC3)cc12` as the compound, how does the Potency read?
A: active: 9.2 µM

Q: For `Fc1nc(F)c(F)c(NCCCNc2c(F)c(F)nc(F)c2F)c1F`, which Potency is on record?
A: inconclusive: 29.1 µM [cytotoxic, single point]

Q: For `COc1cccc(CN2CCC2(C)C(=O)Nc2ccc3c(c2)OCO3)c1F` (configuration not stated), which Potency is on record?
A: inconclusive: 23.1 µM [cytotoxic, single point]

Q: With `O=C(CSc1ccccn1)NC1CCCc2c1cnn2-c1ccccc1F` (configuration not stated) as the compound, how does the Potency read?
A: inconclusive: 20.6 µM [cytotoxic, partial curve]

Q: For `CCOc1ccccc1OCC(=O)Nc1cc(C)on1`, which Potency is on record?
A: inconclusive: 20.6 µM [cytotoxic, single point]

Q: Which Potency does the source give for `Cc1ccc(C(=O)NC(=S)/C=C2\N(C)c3ccccc3C2(C)C)cc1` here?
A: inconclusive: 3.26 µM [cytotoxic, full curve, poor fit]

Q: For `N=C1/C(=C\c2ccc(-c3ccc(C(=O)O)cc3)o2)C(=O)N=C2SC=C(c3ccccc3)N12`, which “activity change, negative = cytotoxicity” value is on record?
A: inactive: 1.34%

Q: Which Potency does the source give for `COc1cc(CNC(C)C23CC4CC(CC(C4)C2)C3)ccc1OCC(=O)NC(C)(C)C` (configuration not stated) here?
A: inconclusive: 23.1 µM [cytotoxic, single point]

Q: With `O=C(/C=C/c1ccc(Cl)cc1)NC(=S)Nc1ccc(CN2CCOCC2)cc1` as the compound, how does the “activity change, negative = cytotoxicity” value read?
A: inactive: -16.4%

Q: Which “activity change, negative = cytotoxicity” value does the source give for `C[C@@H]1CN([C@H](C)CO)C(=O)c2cc(NC(=O)Nc3cccc4ccccc34)ccc2O[C@H]1CN(C)Cc1ccc(C(F)(F)F)cc1` here?
A: inactive: 0.0002%

Q: For `Cc1cccc(Nc2ncnc3onc(-c4cccc(Cl)c4)c23)c1C`, which Potency is on record?
A: inconclusive: 6.51 µM [cytotoxic, partial curve]

Q: Which Potency does the source give for `CCOC(=O)C1=NN(c2ccccc2)C2(S1)SC(C(C)=O)=C(C)N2c1ccccc1` (configuration not stated) here?
A: inconclusive: 29.1 µM [cytotoxic, single point]

Q: For `COc1ccc2nc(/N=C\N(C)C)sc2c1`, which “activity change, negative = cytotoxicity” value is on record?
A: inactive: 1.87%

Q: With `CC1(C)O[C@@H]2[C@H](O1)[C@@H](CO)O[C@H]2n1cc(Br)c(=O)[nH]c1=O` as the compound, how does the Potency read?
A: inconclusive: 5.8 µM [rising, full curve]

Q: Which Potency does the source give for `O=C(CCc1nc2ccccc2c(=O)[nH]1)Nc1ccccc1N1CCCC1` here?
A: inconclusive: 13 µM [cytotoxic, partial curve]

Q: With `Cc1c(NC(=O)C(C)OC(=O)Cc2ccc(F)cc2)c(=O)n(-c2ccccc2)n1C` (configuration not stated) as the compound, how does the Potency read?
A: inconclusive: 23.1 µM [rising, partial curve, poor fit]

Q: For `CC(=O)c1c(N2CCCC2)[nH]c(-c2ccccc2)nc1=S`, which Potency is on record?
A: inconclusive: 29.1 µM [cytotoxic, single point]

Q: For `CC(C(=O)NCCc1ccc(F)cc1)N1CCN(Cc2ccccc2)CC1` (configuration not stated), which Potency is on record?
A: inconclusive: 23.1 µM [cytotoxic, single point]

Q: Which Potency does the source give for `Cc1nn(C)c(C)c1S(=O)(=O)N(CC(=O)NCCCOC(C)C)c1ccc(C(C)C)cc1` here?
A: active: 4.61 µM

Q: With `CCn1c(SCC(=O)Nc2cccc(C)c2)nc2ccccc2c1=O` as the compound, how does the Potency read?
A: inconclusive: 3.66 µM [cytotoxic, partial curve, poor fit]

Q: With `O=C(NNC1CC(c2ccccc2)=NN1C(=O)c1ccccc1)c1ccccc1` (configuration not stated) as the compound, how does the Potency read?
A: inconclusive: 11.6 µM [cytotoxic, partial curve, poor fit]

Q: For `COc1cccc(CN(C)C(=O)COc2cccc3c2OC(C)(C)C3)c1OC`, which Potency is on record?
A: inconclusive: 20.6 µM [cytotoxic, single point]

Q: With `Cc1ccc(Cl)cc1NC(=O)CN1C(=O)NC2(CCCCCC2)C1=O` as the compound, how does the Potency read?
A: active: 20.6 µM

Q: For `CC(C)CNC1=C(C(=S)Nc2ccccc2)C(=O)CC(C)(C)C1`, which Potency is on record?
A: inconclusive: 3.26 µM [cytotoxic, full curve, poor fit]

Q: Which “activity change, negative = cytotoxicity” value does the source give for `CCOCCc1nn2c(=O)cc(COC(=O)c3ccccc3OC)nc2s1` here?
A: inactive: -7.31%

Q: For `COc1cc(/C=C2/SC(=NCc3ccccc3)N(Cc3ccccc3)C2=O)ccc1O`, which Potency is on record?
A: inconclusive: 16.4 µM [cytotoxic, single point]

Q: With `Clc1ccc(CNc2cnccn2)cc1Cl` as the compound, how does the Potency read?
A: inconclusive: 29.1 µM [cytotoxic, single point]

Q: Which Potency does the source give for `O=c1c2ccccc2nnn1CSc1nnc(-c2cccc(S(=O)(=O)N3CCCCC3)c2)o1` here?
A: inconclusive: 14.6 µM [cytotoxic, single point]

Q: For `CCOc1ccccc1NC(=O)CSc1nc2ccccc2c(=O)n1CC1CCCO1` (configuration not stated), which Potency is on record?
A: inconclusive: 16.4 µM [cytotoxic, partial curve]

Q: For `CCCn1c(SCC(=O)Nc2cc(C(=O)O)ccc2C)nc2sc3c(c2c1=O)CCC3`, which “activity change, negative = cytotoxicity” value is on record?
A: inactive: 0%

Q: With `COc1ccc(OC)c(NC(=O)COC(=O)CN2C(=O)NC3(CCCC3)C2=O)c1` as the compound, how does the Potency read?
A: inconclusive: 2.91 µM [rising, partial curve, poor fit]

Q: For `C[C@H]1CN([C@@H](C)CO)S(=O)(=O)c2ccc(/C=C/c3ccccc3)cc2O[C@H]1CN(C)C(=O)NC1CCCCC1`, which Potency is on record?
A: inconclusive: 18.4 µM [cytotoxic, partial curve]

Q: For `O=C(c1cc2cc(Cl)ccc2oc1=O)N1CCOCC1`, which Potency is on record?
A: inconclusive: 16.4 µM [rising, partial curve, poor fit]

Q: With `CC(C)NC(=O)C(c1ccc(F)cc1)N(C(=O)CCC(=O)Nc1ccccn1)C1CCCC1` (configuration not stated) as the compound, how does the Potency read?
A: inconclusive: 7.31 µM [cytotoxic, partial curve]

Q: With `COCCN1C(=O)COc2ccccc2C1C(=O)NC1CCCCC1` (configuration not stated) as the compound, how does the “activity change, negative = cytotoxicity” value read?
A: inactive: -2.6%
